# Some of the results follow. The main result of the screen is listed elsewhere. These columns were measured beside it and carry no call. The list favours compounds with an active or inconclusive main result. Potencies come from curve fits of mixed quality, noted in brackets.
# Test: qHTS Assay for Lipid Storage Modulators in Drosophila S3 Cells;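 as to cell number change: cells counted by Cell Tracker Red CMTPX staining in the red channel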
# Settings: BODIPY lipid droplet fluorescence, 18-24 h; for cell number change: measured here: cell count max response, cells fed with added oleic acid
# Outline: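 Drosophila S3 cells got compounds at several concentrations plus oleic acid (400 uM solution). Laser-scanning cytometry with 488 nm excitation read lipid droplets at 500-530 nm and cells at 575-640 nm. Percent activity was relative to 20 uM Triacsin C.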
# [1] = measured here: lipid fluorescence (Fed channel) AC50, cells fed with added oleic acid
# [2] = measured here: cell number channel AC50, cells fed with added oleic acid
SMILES,cell number change [%],AC50 [1],AC50 [2]
CC[N+](CC)(CCCCS(=O)(=O)[O-])CCNP1(=O)C=C(c2ccccc2)OC(c2ccccc2)=C1,-0.566,–,–
Cc1nc(SCC(=O)NCc2ccco2)nc(C)c1C,-10.9,–,–
Cc1cc(C)n(CC(O)Cn2c3ccc(Br)cc3c3cc(Br)ccc32)c(=O)n1 (stereo unspecified),-5.13,"29.1 µM [rising, single point]",–
Cc1cc(C)c2nc(NCc3ccccc3O)sc2c1,-53.2,"20.6 µM [falling, single point]","20.6 µM [falling, single point]"
OCCCNC(=S)Nc1ccc2nc(-c3ccccn3)c(-c3ccccn3)nc2c1,-0.575,"6.51 µM [rising, single point]","1.46 µM [rising, partial curve, poor fit]"
O=C(CCN1C(=O)c2ccccc2C1=O)Nc1cccc(S(=O)(=O)NC2=NCCC2)c1,0.797,–,–
Cc1cccc(NC(=S)NC(=O)c2ccco2)n1,-36.1,–,"4.11 µM [falling, full curve, poor fit]"
C/C(=N\NC(=O)c1nnn(-c2nonc2N)c1-c1cccs1)c1ccc(C)cc1,40.6,"25.9 µM [rising, partial curve]","8.2 µM [rising, partial curve]"
CN(NS(=O)(=O)c1ccc(Cl)cc1)c1cnn(C)c(=O)c1Cl,-46.1,"25.9 µM [falling, single point]","16.4 µM [falling, single point]"
COc1ccc(OC)c(C(=O)COC(=O)c2cccnc2Cl)c1,7.94,–,"0.731 µM [rising, single point]"
Cc1nn2c(-c3ccccc3)nnc2c2ccccc12,0.405,"0.461 µM [rising, full curve]",–
CC(C)c1ccc(S(=O)(=O)N2CCN(C(=O)[C@@H]3CCCN3C(=O)c3cccs3)CC2)cc1,14.1,–,–
CCOc1cc(/C=N/NC(=O)CN2CCCCC2)ccc1OCc1cccc(Cl)c1,-2.14,"16.4 µM [rising, single point]",–
O=C(CSc1ccc([N+](=O)[O-])cn1)Nc1ccc(N2CCOCC2)c(Cl)c1,0.234,"0.92 µM [falling, full curve, poor fit]",–
O=C(c1ccc2c(=O)n(CCc3ccccc3)c(=O)[nH]c2c1)N1CCN(c2ccc(F)cc2)CC1,9.01,"29.1 µM [falling, single point]",–
COc1cc(C2/C(=C(\O)c3ccc4c(c3)CC(C)O4)C(=O)C(=O)N2CC2CCCO2)cc(OC)c1OC (stereo unspecified),–,"1.3 µM [falling, full curve]",–
Clc1ccc2nc(N3CCNCC3)nc(-c3ccccc3)c2c1,-32.9,"23.1 µM [falling, single point]","23.1 µM [falling, single point]"
O=C(NCC(=O)N1CCCC1)c1ccc(Cl)cc1,-22.7,"29.1 µM [rising, single point]",–
COc1cc(-c2nc3c(c(C)nn3-c3ccccc3)c3cc(OC)c(OC)cc23)ccc1O,-3.29,"20.6 µM [falling, partial curve]",–

# Single records, as listed above. Values in the order: cell number change [%] | AC50 [1] | AC50 [2]
# `Cc1cc(C)c2nc(NCc3ccccc3O)sc2c1` is entered as -53.2 | 20.6 µM [falling, single point] | 20.6 µM [falling, single point]
# `O=C(NCC(=O)N1CCCC1)c1ccc(Cl)cc1` is entered as -22.7 | 29.1 µM [rising, single point] | –

# The listing continues.

SMILES,cell number change [%],AC50 [1],AC50 [2]
CCOc1ccccc1NC(=O)Cn1cnc2c(cnn2-c2ccc(C)c(C)c2)c1=O,16.4,"0.206 µM [rising, full curve, poor fit]",–
CCOC(=O)C1=C(O)/C(=C/c2ccccn2)SC1=Nc1ccc(Cl)cc1,-19.4,"29.1 µM [falling, single point]",–
N#Cc1c(N)nc(N2CCCC2)c(C#N)c1-c1ccc(Cl)cc1,-23.6,"1.64 µM [rising, partial curve, poor fit]",–
O=C(CSc1oc(-c2cccs2)nc1S(=O)(=O)c1ccccc1)NC1CCCCC1,35.2,"0.231 µM [rising, full curve, poor fit]","0.92 µM [rising, full curve, poor fit]"
CCCCNC(=S)N1CCN(C)CC1,-35.8,"29.1 µM [falling, single point]","32.6 µM [falling, single point]"
O=C(CNC(=O)c1ccccc1Br)N/N=C\c1cc([N+](=O)[O-])cc(Br)c1O,48.7,–,–
CCOC(=O)CSc1nc2sc3c(c2c(=O)[nH]1)CCCC3,-21.1,–,–
Cc1cc(N2CCN(Cc3ccccc3)CC2)n2nc(C)c(-c3ccccc3)c2n1,39.9,"0.651 µM [rising, full curve]","0.461 µM [rising, full curve, poor fit]"
COCC(=O)Nc1ccc(Br)cc1,-22.4,"18.4 µM [falling, single point]","2.06 µM [falling, partial curve, poor fit]"
CCOC(=O)Cn1c(=NC(=O)c2nc3ccccc3s2)sc2cc(S(N)(=O)=O)ccc21,-71.7,–,"16.4 µM [falling, partial curve]"
O=c1cnn(Cc2ccc(F)cc2)c2ccccc12,-12.4,"6.51 µM [rising, single point]",–
CCn1c(=O)[nH]c2cc(Cl)c(Cl)cc21,30.3,"29.1 µM [rising, single point]","29.1 µM [rising, single point]"
COc1ccc(N=CC2=C(O)c3ccccc3C2=O)c(OC)c1,-5.05,–,–
O=C(O)C(=O)Cc1c[nH]c2ccccc12,0.551,"13 µM [rising, partial curve]",–
O=P(OC1CCCCC1)(OC1CCCCC1)C(Nc1ccccc1)c1cccnc1 (stereo unspecified),18.5,–,–
Cc1nnc(SCCn2c(N3CCC(Cc4ccccc4)CC3)nc3c2c(=O)[nH]c(=O)n3C)s1,7.78,"0.411 µM [rising, full curve, poor fit]",–
Cc1ccc(S(=O)(=O)N2CCOCC2)cc1NC(=O)Cn1ccsc1=N,-24.4,"29.1 µM [falling, single point]","3.26 µM [falling, single point]"
COc1ccc(N2C(=O)C3CCCN3C2c2ccc(Cl)cc2)cc1 (stereo unspecified),31.4,–,"6.51 µM [rising, single point]"

# — PubChem BioAssay AID2685 (National Center for Advancing Translational Sciences (NCATS), 2010)
